Reference: paper PMC12040169 (PLOS Biology, 2025)
This is one part of the list.

These compounds were tested on T1, CTL2-GFP (C. trachomatis L2/434/Bu, GFP-expressing). Conditions: bulk GFP, single well; 28.5 h, 10 µM; inhibitor.
T1 construct: L2/434/Bu, GFP-expressing
Design: species or system HeLa; Intracellular C. trachomatis growth in HeLa cells, bulk GFP fluorescence relative to DMSO

| Structure (SMILES) | % of control remaining [%] |
| --- | --- |
| O=C(CCc1cccnc1)NC(Cc1ccsc1)c1nccs1 (centres unmarked) [CBK284665] | 161.65 |
| COc1cc(CN2CCC(C(=O)NC(c3ccc(Cl)cc3)c3ccsc3)CC2)cc(OC)c1 (centres unmarked) [CBK147962] | 104.323 |
| CC1CCc2c(C(=O)N3CCC4(C3)NC(=O)NC4=O)csc2C1 (centres unmarked) [CBK304290] | 136.896 |
| CN(C(=O)c1cc(-c2cccs2)[nH]n1)c1ccccc1 [CBK288115] | 133.295 |
| O=C(Nc1nc2c(s1)CCCCC2)C1CN(C(=O)Cc2ccc(F)cc2)C1 [CBK285904] | 133.457 |
| O=C(c1ccccc1)N1C[C@H](c2ccc(F)cc2)[C@H]2CN(CCc3ccccc3)CC[C@H]21 [CBK286291] | 146.181 |
| O=C1Nc2ccc(-c3ccccc3F)cc2C(=O)N2CCN(C(=O)c3cccnc3)C[C@H]12 [CBK289591] | 85.9122 |
| Cc1cc(C)n(CCN2CCC(N(C)Cc3nnc(C)n3C)C2)n1 (centres unmarked) [CBK304449] | 178.809 |
| CC(C)CNc1nccnc1-c1ccc(Cl)cc1 [CBK088738] | 113.236 |
| Cc1csc(C(Cc2ccsc2)NC(=O)CC2CCCO2)n1 (centres unmarked) [CBK282227] | 135.969 |
| CCN1CCN(c2ncnc3sc(C)c(C)c23)CC1 [CBK288101] | 148.668 |
| O=C(Cn1cc(C(=O)NC2CCCCC2)ccc1=O)NCC1(c2ccccc2Cl)CC1 [CBK286101] | 133.076 |
| COc1ccc(-c2cnc(N)c(-c3ccc(C=O)cc3)n2)cn1 [CBK064096] | 171.616 |
| COCC1CCCN1C(=O)c1cnn2c(C)c(Cc3cccc(C#N)c3)c(C)nc12 (centres unmarked) [CBK162099] | 118.155 |
| CC(=O)NCCn1cc2c(n1)[C@H]1CN(C(=O)CC(C)(C)C)C[C@H]1CC2 [CBK284592] | 121.41 |
| COc1ccc(CN2CCCN(C(=O)c3cccc(C#N)c3)CC2)cc1 [CBK305281] | 122.167 |
| CCOc1n[s+]([O-])nc1Nc1cc(Cl)cc(Cl)c1 (centres unmarked) [CBK007897] | 101.741 |
| Cc1cccc(C2(O)CCN(C(=O)CCCc3ccncc3)CC2)c1 [CBK282506] | 96.1635 |
| CC(C)(C)S(=O)(=O)Cc1noc(-c2ccc(Cl)nc2)n1 [CBK089825] | 99.7839 |
| O=C(O)c1ccc(-c2ccc(N3CCN(C(=O)c4ccco4)CC3)nc2)cc1 [CBK037700] | 113.565 |
| COc1ccc2c(c1)CC(C(=O)N1CCc3sccc3C1c1cccs1)CO2 (centres unmarked) [CBK285628] | 55.0261 |
| O=C1CN(c2nc(-c3ccncc3)nc3ccccc23)CCN1 [CBK305805] | 200.742 |
| CCOc1cc(OCC)cc(C(=O)N2CCC3(CC2)CC(=O)c2cc(OCCN(C)C)ccc2O3)c1 [CBK169003T] | 129.929 |
| CNC(=O)CN(C)Cc1c(C(=O)N2CCOCC2)nc2c(C)cccn12 [CBK307128] | 114.342 |
| Cc1cccc(-c2noc([C@@H]3C[C@@H](O)CN3Cc3ccccn3)n2)c1 [CBK288837] | 134.913 |

A draw from above in order of molecular weight, rising.

| Structure (SMILES) | % of control remaining [%] |
| --- | --- |
| CCOc1n[s+]([O-])nc1Nc1cc(Cl)cc(Cl)c1 (centres unmarked) [CBK007897] | 101.741 |
| CC(C)(C)S(=O)(=O)Cc1noc(-c2ccc(Cl)nc2)n1 [CBK089825] | 99.7839 |
| Cc1csc(C(Cc2ccsc2)NC(=O)CC2CCCO2)n1 (centres unmarked) [CBK282227] | 135.969 |
| COCC1CCCN1C(=O)c1cnn2c(C)c(Cc3cccc(C#N)c3)c(C)nc12 (centres unmarked) [CBK162099] | 118.155 |

Next part:

| Structure (SMILES) | % of control remaining [%] |
| --- | --- |
| Cc1ccc(S(=O)(=O)NC2c3cccc4cccc(c34)C2Sc2ccccn2)cc1 (centres unmarked) [CBK265840] | 91.2585 |
| Cc1ccc(S(=O)(=O)N2CCC(C(=O)O)CC2)cc1C(=O)O [CBK266636] | 133.687 |
| CC(NC(=O)CSCc1ccco1)c1ccccc1 (centres unmarked) [CBK283237] | 116.928 |
| O=C(Nc1ccccc1Cl)Nc1[nH]nc(O)c1Cc1c(Cl)cccc1Cl [CBK089367] | 86.69 |
| CC(C)[C@H](CO)n1c(=O)[nH]c2ncc(-c3ccc(OC(F)(F)F)cc3)nc21 [CBK065037] | 106.935 |
| c1ccc2cc(CCN3CCC(Oc4cncc(OCCN5CCOCC5)n4)C3)ccc2c1 (centres unmarked) [CBK084503] | 138.944 |
| O=C(c1c(F)cccc1Cl)N1CCN(Cc2ccc3c(c2)OCO3)CC1 [CBK074724] | 113.246 |
| CC(C)/C=N/N=C1\NC(=O)CS1 [CBK023706] | 90.6124 |
| OCC(O)CN1CCCC1 (centres unmarked) [CBK015457] | 128.117 |
| Cc1nc(C)n(CCc2nc3ccccc3[nH]2)n1 [CBK269364] | 119.338 |
| Cc1nonc1CN(C)C(=O)C1CC2C=CC1C21CC1 (centres unmarked) [CBK282076] | 114.723 |
| O=C(Nc1cccc2[nH]ccc12)c1ccc(Cl)cc1 [CBK159632] | 97.7876 |
| O=C(c1ccc2[nH]c(=O)[nH]c2c1)N1CCCC2(CCN(C(=O)c3cc(F)c(F)cc3F)C2)C1 (centres unmarked) [CBK131566] | 104.084 |
| CCc1nccn1CCC(=O)NC1CCN(c2ccc(F)cc2)CC1 [CBK306760] | 121.855 |
| CC(C)C(=O)Nc1nnc(-c2ccc(Cl)cc2)o1 [CBK287593] | 102.037 |
| Cn1cc(NC(=O)C2CCCN(c3ncccn3)C2)cn1 (centres unmarked) [CBK304394] | 118.447 |
| Cn1cc(CNS(=O)(=O)c2ccc(F)c(Br)c2)cn1 [CBK305174] | 125.028 |
| O=C(NCc1ccccc1)C1CCCN(c2ncnc3[nH]cnc23)C1 (centres unmarked) [CBK287916] | 118.401 |
| O=C(Nc1ccccc1C(=O)O)c1cc(S(=O)(=O)Nc2ccc(F)cc2)ccc1Cl [CBK263248] | 118.157 |
| Cc1ccc2c(c1)C(=O)CC1(CCN(C(=O)Cc3c(C)[nH]c(=O)[nH]c3=O)CC1)O2 [CBK285688] | 145.743 |
| O=C1c2cc(-c3nc(-c4ccccc4)[nH]c3-c3ccccc3)ccc2-c2ccc([N+](=O)[O-])cc21 [CBK262613] | 100 |
| CCc1ccc(CC)c(S(=O)(=O)NC(CC(=O)O)c2ccccc2)c1 (centres unmarked) [CBK266208] | 134.927 |
| CCOc1ccc2c(c1)CN(CCCc1nc(C)no1)CC2 [CBK305076] | 104.496 |
| NC(=O)c1ccc(-c2cncc(NCc3ccco3)n2)cc1 [CBK065383] | 107.649 |
| O=C(CSc1nc(=O)cc(O)[nH]1)c1ccccc1 [CBK026570] | 138.124 |
